Measurements from “University of Dundee, Small-Polar-MMV Screening Library” (2021), ChEMBL document CHEMBL3988442.

Protein sequences, listed by entry. Tags and fused reporters are not part of them. Residues count along the entry.
UniProt P9WNZ1, whole entry: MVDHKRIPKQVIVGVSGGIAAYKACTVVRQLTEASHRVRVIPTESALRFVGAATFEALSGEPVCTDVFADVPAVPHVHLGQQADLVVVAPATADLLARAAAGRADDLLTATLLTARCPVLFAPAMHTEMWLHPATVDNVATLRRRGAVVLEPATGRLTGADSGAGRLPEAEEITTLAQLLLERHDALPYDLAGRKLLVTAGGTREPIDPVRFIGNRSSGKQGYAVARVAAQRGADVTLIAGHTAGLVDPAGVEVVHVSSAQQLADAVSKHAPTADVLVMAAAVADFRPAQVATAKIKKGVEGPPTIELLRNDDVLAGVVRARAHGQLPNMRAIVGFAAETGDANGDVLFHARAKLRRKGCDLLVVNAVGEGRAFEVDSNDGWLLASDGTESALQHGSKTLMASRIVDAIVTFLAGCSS
UniProt I6X8D2, whole entry: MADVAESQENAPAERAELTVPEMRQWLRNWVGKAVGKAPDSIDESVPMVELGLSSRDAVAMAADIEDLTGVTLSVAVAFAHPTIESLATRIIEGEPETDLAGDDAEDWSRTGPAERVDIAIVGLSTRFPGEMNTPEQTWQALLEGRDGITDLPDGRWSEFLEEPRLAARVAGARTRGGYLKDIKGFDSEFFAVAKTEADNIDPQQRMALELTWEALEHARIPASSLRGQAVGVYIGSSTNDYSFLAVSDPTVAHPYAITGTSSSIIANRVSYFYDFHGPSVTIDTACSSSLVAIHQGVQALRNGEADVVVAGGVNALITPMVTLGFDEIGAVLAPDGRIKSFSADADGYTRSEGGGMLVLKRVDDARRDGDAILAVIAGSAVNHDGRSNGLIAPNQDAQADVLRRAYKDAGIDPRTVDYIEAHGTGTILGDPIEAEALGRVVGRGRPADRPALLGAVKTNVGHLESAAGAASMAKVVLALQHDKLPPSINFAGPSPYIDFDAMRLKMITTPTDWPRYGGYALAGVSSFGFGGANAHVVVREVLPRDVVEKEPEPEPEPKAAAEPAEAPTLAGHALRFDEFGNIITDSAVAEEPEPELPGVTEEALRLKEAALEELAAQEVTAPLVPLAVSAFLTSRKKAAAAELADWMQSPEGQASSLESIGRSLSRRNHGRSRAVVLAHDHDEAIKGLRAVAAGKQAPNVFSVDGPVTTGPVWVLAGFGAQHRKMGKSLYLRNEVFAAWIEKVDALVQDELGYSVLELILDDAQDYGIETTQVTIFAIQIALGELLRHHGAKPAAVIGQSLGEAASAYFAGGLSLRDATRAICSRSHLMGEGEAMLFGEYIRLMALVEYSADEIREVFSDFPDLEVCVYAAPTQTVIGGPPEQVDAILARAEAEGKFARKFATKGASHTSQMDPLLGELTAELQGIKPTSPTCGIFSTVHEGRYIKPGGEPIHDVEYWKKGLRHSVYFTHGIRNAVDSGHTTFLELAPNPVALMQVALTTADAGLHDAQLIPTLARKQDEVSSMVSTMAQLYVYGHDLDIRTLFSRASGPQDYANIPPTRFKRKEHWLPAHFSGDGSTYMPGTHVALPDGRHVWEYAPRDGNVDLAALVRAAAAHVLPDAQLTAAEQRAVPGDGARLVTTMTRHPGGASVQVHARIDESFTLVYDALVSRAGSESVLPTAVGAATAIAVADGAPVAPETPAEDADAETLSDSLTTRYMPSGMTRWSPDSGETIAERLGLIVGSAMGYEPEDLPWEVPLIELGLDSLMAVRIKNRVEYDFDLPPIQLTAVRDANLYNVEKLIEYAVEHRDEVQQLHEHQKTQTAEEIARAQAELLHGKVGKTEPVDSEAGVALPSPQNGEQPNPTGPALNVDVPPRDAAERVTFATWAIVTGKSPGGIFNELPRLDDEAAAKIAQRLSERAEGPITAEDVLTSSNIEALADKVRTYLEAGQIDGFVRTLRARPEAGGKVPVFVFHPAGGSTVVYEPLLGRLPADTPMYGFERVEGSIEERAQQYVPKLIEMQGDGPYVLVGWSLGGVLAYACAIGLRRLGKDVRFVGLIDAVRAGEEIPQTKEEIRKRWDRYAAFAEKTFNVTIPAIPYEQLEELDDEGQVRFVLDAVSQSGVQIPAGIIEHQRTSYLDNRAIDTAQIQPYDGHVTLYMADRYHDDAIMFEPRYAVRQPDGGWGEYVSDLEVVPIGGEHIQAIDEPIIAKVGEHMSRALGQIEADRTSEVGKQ
UniProt P9WPC5, whole entry: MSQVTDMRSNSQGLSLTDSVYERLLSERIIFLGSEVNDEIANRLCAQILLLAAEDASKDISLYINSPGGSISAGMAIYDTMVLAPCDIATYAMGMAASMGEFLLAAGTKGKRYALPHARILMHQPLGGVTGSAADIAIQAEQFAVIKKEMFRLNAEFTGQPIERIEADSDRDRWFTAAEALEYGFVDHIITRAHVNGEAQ
UniProt P9WPC3, whole entry partner: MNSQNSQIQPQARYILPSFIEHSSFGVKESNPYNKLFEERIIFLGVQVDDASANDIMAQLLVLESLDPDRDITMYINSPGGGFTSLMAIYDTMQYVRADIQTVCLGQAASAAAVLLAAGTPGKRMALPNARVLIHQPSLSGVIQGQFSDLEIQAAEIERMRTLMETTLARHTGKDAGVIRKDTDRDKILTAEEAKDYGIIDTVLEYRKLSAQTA
UniProt A4I591, 1-473: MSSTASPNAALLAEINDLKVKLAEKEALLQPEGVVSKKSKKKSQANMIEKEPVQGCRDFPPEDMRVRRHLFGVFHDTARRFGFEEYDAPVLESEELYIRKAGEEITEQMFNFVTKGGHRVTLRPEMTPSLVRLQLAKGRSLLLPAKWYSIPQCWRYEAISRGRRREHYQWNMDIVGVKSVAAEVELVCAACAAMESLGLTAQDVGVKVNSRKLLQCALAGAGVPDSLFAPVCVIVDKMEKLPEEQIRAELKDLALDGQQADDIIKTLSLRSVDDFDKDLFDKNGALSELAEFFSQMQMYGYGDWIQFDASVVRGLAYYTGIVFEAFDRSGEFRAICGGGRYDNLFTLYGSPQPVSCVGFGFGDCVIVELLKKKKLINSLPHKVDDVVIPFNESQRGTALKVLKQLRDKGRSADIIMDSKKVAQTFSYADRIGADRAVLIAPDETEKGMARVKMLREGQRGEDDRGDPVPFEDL
UniProt P9WFT3, whole entry: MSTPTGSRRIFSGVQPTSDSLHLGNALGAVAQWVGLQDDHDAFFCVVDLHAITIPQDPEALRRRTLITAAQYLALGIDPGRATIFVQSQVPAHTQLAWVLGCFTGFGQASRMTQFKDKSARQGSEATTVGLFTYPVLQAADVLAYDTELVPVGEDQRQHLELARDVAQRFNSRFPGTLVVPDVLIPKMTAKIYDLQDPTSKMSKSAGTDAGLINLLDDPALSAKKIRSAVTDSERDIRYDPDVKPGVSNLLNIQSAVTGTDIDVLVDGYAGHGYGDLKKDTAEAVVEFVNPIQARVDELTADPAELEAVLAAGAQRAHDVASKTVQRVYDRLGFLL

The filed quantity is “Percent Effect” (%). The controls that fix the scale are not given in the record; negative values are as filed. The compounds are a random part of those screened. A dash means the value is not listed here; it may have been measured.

CoaBC: 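Enzyme assay of CoaBC with a phosphate dye (Biomol Green) read at 650 nm. Target: Coenzyme A biosynthesis protein CoaBC, Mycobacterium tuberculosis (UniProt P9WNZ1). Compounds at 30 µM. Direction is inferred from only a few compounds that gave an IC50; most scored high, so higher reads as stronger inhibition. Most strong results did not repeat in a second test. About 67,000 compounds were tested under these conditions; 0.06% (about 40) showed 50% or more at least once.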
Pks13 thioesterase: 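Enzyme assay of the thioesterase domain of polyketide synthase 13; the read-out is not stated. Target: Polyketide synthase Pks13, Mycobacterium tuberculosis (UniProt I6X8D2). Concentration: 30 µM. The record gives no direction; the compounds picked for IC50 retests had high values, so higher reads as stronger inhibition. Size under these conditions: about 67,000 compounds, about 300 of them at 50% or above in at least one test.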
ClpP1P2: 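ClpP1P2, Mycobacterium tuberculosis (UniProt P9WPC5 and UniProt P9WPC3). Protease assay of ClpP1P2, read by the AMC dye that it sets free. Tested at 50 µM. Higher reads as stronger inhibition, judged from the few compounds that gave an IC50. Most other retested compounds had strongly negative values. Size under these conditions: about 69,000 compounds, about 10 of them at 50% or above in at least one test.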
Toxoplasma: 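Assay of Toxoplasma gondii numbers, read through their beta-galactosidase reporter with a colour substrate. Tested at 10 µM. Higher reads as fewer parasites (inferred from which compounds were picked for retests). Of about 67,000 compounds tested this way, about 260 (0.38%) reached 50% or more in at least one test.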
LiHisRS: 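Enzyme assay of histidyl-tRNA synthetase; the read-out is not stated. Target: Histidine-tRNA ligase, Leishmania infantum (UniProt A4I591). Compounds at 30 µM. The record gives no direction; compounds that gave an IC50 in retests scored well above the rest, so higher reads as stronger inhibition. The assay is labelled LdHisRS but filed under L. infantum. Of about 69,000 compounds tested this way, about 410 (0.6%) reached 50% or more in at least one test.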
MtTrpRS: 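Tryptophan-tRNA ligase, Mycobacterium tuberculosis (UniProt P9WFT3). Enzyme assay of tryptophanyl-tRNA synthetase; the read-out is not stated. Compounds at 10 µM. Higher most likely means stronger inhibition; the record gives no direction and few retests gave an IC50. Of about 65,000 compounds tested this way, about 64 (0.098%) reached 50% or more in at least one test.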

SMILES,CoaBC,Pks13 thioesterase,ClpP1P2,Toxoplasma,LiHisRS,MtTrpRS
O=C(O)CSc1nnc(-c2cn[nH]c2)n1-c1ccccc1Cl,1.411,4.719,-7.845,-0.8661,24.24,11.91
CC(C)n1cc2cc(NC(=O)Cn3cnnn3)ccc2n1,0,-31.19,-0.8758,-4.519,17.17,-2.182
O=C1NCCN(Cc2ccoc2)C1CC(=O)N1CCc2sccc2C1 (centres undefined),0.1212,11.91,-19.69,-13.55,11.29,6.061
[H][C@@]12CN(C(=O)COC)C[C@]1([H])C(=O)N(Cc1cccc(F)c1)C2,-,-,-,-3,-,-
O=C(O)C(F)(F)F.O=C(O)C(F)(F)F.[H][C@@]12CCN(Cc3ccncc3)CC[C@@]1([H])N(S(C)(=O)=O)CCO2,-,-,-,1.927,-,-
[H][C@@]12OCCN(C(=O)C3=CCCC3)[C@@]1([H])CC[C@@H]2OC,-,-,-,-8.789,-,-
Cc1[nH]c(=O)sc1S(=O)(=O)N1CCCC1C(=O)NCc1ccsc1 (centres undefined),-2.917,10.02,-3.11,8.673,14.29,0.5623
Cn1cnnc1-c1ccnc(NCc2ccc(Br)cc2)c1,5.058,-2.336,0.5379,4.091,13.51,1.33
CCN(C)CC(=O)N1CCc2nc(NC)nc(C(=O)N3CCCC3)c2C1,11.47,-6.075,-4.551,-12.45,18.09,5.359
CC(C)NC(=O)CC1CC2(CCN(S(C)(=O)=O)CC2)c2ccccc21 (centres undefined),3.609,-2.772,3.126,5.808,4.425,-0.7538
Cc1noc(C)c1CN1CCc2ncnc(-c3ccncc3)c2CC1,-2.222,-33.88,12.6,-,4.545,-
COc1cc(CNCc2c(C)nn(C)c2N(C)C)ccn1,7.236,-13.89,5.076,4.308,21.43,2.739
CC(C(=O)N(C)Cc1ccco1)n1cncn1 (centres undefined),8.884,-,14.43,-5.247,19.18,-2.861
Cc1cccc(N2CCN(C(=O)CCc3c(C)noc3Cl)CC2)c1,0.6519,-21.71,-20.93,-3.649,7.895,0.6482
[H][C@@]12CCN(C(=O)c3ccncn3)C[C@@]1([H])O[C@H](C)C2,-,-,-,-4.027,-,-
CNC(=O)c1ccc(C(=O)N2CCCC(n3ccnc3C)C2)cn1 (centres undefined),3.959,-8.034,-16.2,10.3,8.036,4.769
COCCn1cnnc1Cn1ccnc1-c1ccsc1,3.639,-1.617,-24.16,-14.19,6.78,-1.972
Cc1noc(C(C)N2CCN(CCN3CCCC3=O)CC2)n1 (centres undefined),-8.772,2.137,-5.66,-28.89,12.5,-4.446
CN1CCC2(CC1)CN(C(=O)c1cccnc1)Cc1ccccc12,-1.014,-7.767,-1.488,1,-13.76,-3.285
COCCN1C(=O)CC[C@@H]2[C@H]1CCN2Cc1ccc(C)s1,3.553,-0.9258,-6.496,-,14.71,-4.856
O=C(c1cc(-c2cn[nH]c2)nc2cc(F)ccc12)N1CCS(=O)(=O)CC1,3.045,-15.71,-8.295,1.202,13.98,4.724
COc1cccc(CN2CCCC2c2cncc(Nc3nncs3)n2)c1 (centres undefined),2.613,-11.71,16.12,-,8.451,0.2038
N#Cc1cccnc1N1CCN(S(=O)(=O)NCc2ccccc2)CC1,2.152,14.7,-3.088,-14.07,22.89,0
O=C(C1CC1)N1CCc2ccccc2C12CCNCC2,0.2439,61.65,0.9002,-,9.434,-
COc1ccc(CNC(=O)CCn2cc(C)cn2)cc1C,-8.121,-2.507,-11.52,5.05,1.613,-1.751
COc1ccc(-c2noc([C@@H]3C[C@@H](O)CN3C3CCCCC3)n2)cc1,-0.2208,-,-5.672,2.657,6.757,-1.442
CC(C)NC(=O)N1CCCCC1c1nnc2n1CCNC2 (centres undefined),1.842,-,-1.578,-2.132,30.34,10.29
COc1cccc(C(=O)N2CCc3ncnc(C)c3CC2)c1,-2.796,2.853,-2.895,24.63,13.33,-2.056
CN(C)CCN1C(=O)CC[C@@H]2[C@H]1CCN2C(=O)c1ccc(C#N)cc1,-,-27.53,-3.061,-,17.09,-0.4845
Cn1ccc2c(NC(=O)Cn3ncc4c(c3=O)CCCC4)cccc21,-9.434,-6.063,2.042,-10.42,20.88,-0.6159
Cn1ccnc1-c1cn(CCCc2nnc(N)s2)nn1,4.391,5.405,-24.78,18.82,39.76,-1.071
O=C(NS(=O)(=O)c1c(Cl)cccc1Cl)c1cccc2c1OCCO2,-0.3841,-3.204,-7.134,0.8907,9.877,2.057
Cc1cnc(C(=O)N2CCCC(c3c(C)c(=O)nc4n3CCC4)C2)cn1 (centres undefined),-0.2451,10.54,-0.5802,-,13.54,-
COc1c(C2CCCN2Cc2nc(-c3ccco3)no2)c(C)nn1C (centres undefined),14.91,-9.178,-11.94,-16.33,8.929,-0.0684
COC[C@H]1CC[C@H]2[C@H](CCN2C(=O)c2ccncc2F)O1,4.198,-19.41,-11.67,-,8.333,-0.9982
O=C(c1csc(Br)c1)N1CCCC(n2ccnc2)C1 (centres undefined),6.789,-37.9,-7.717,6.13,24.32,-0.4873
CC(C)(C)OC(=O)N1CCN(c2cccnc2)CC1C(=O)O (centres undefined),2.375,17.26,-17.86,-,11.27,3.465
[H][C@]12CC=C(CN3CCCn4nc(C(=O)O)cc4C3)[C@]([H])(C1)C2(C)C,-,-,-,1.335,-,-
Cc1ccc(C(=O)Nc2cc(C(N)=O)ccc2CN(C)C)cc1Cl,-,-43.18,2.334,-0.9709,12.68,4.541
[H][C@@]12C[C@@H](OC)C[C@]1([H])CN(C(=O)c1n[nH]c3c1CCCC3)C2,-,-,-,6.46,-,-
Cc1nc(C)n(C2CCCN(C(=O)c3ccc(NC4CC4)nc3)C2)n1 (centres undefined),2.698,12.19,3.759,18.42,6.154,0.2915
CCCN(C(=O)c1ccc(-n2ccnn2)cc1)c1cccnc1,2.269,-31.93,6.73,2.301,11.11,-4.499
Cc1cc(NC(=O)CN2CCCC2c2c(C)nn(C)c2Cl)on1 (centres undefined),3.571,-29.49,0.4806,-12.41,21.82,-5.962
[H][C@]12CC[C@@]3(N=C(C)N(CC(C)C)C3=O)[C@@]1([H])CN(S(=O)(=O)C1CC1)C2,-,-,-,-1.384,-,-
COCCc1noc(-c2cn(CCc3ccccc3)nn2)n1,3.354,62.23,-28.28,-4.235,10.83,-1.447
Cc1nc(CN(C)C2CCCN(c3cccnn3)C2)nc2ccccc12 (centres undefined),12.52,-13.83,-9.836,6.821,40,-0.6816
Fc1cnccc1CN1CCC2(CCNCC2)C1,-7.944,-19.2,0.1906,5.549,22.37,-2.634
O=C(NCCC(=O)N1CCCc2ccccc21)c1ccc(F)cc1F,2.872,-13.58,-67.34,-3.337,16.81,-7.9